Data from the supplement of paper PMC10849652.
Some of the results follow.

Amino acid sequences for entries named in this document (tags omitted). A change or cut given only in a name is not applied to a line headed by its entry.
UniProt O14964, whole entry, looked up: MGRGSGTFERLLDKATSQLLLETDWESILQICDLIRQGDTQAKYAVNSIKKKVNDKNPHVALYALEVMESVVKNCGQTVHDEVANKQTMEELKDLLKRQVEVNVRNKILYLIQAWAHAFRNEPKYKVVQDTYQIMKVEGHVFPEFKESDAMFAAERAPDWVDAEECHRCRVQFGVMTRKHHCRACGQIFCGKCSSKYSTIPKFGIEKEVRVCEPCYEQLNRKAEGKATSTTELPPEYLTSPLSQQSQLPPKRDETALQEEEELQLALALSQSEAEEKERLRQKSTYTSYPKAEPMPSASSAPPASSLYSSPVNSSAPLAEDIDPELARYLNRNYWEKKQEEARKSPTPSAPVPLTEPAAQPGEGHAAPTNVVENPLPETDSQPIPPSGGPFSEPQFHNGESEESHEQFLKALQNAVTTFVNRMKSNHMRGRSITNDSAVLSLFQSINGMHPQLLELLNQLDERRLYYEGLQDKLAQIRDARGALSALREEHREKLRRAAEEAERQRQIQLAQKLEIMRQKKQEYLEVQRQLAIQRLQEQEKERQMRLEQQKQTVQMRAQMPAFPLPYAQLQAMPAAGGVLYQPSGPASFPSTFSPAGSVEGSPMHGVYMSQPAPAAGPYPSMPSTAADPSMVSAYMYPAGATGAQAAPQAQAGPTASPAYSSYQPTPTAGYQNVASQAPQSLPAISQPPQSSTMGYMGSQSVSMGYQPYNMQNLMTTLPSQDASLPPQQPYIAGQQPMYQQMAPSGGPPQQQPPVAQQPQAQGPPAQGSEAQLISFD
UniProt O95757: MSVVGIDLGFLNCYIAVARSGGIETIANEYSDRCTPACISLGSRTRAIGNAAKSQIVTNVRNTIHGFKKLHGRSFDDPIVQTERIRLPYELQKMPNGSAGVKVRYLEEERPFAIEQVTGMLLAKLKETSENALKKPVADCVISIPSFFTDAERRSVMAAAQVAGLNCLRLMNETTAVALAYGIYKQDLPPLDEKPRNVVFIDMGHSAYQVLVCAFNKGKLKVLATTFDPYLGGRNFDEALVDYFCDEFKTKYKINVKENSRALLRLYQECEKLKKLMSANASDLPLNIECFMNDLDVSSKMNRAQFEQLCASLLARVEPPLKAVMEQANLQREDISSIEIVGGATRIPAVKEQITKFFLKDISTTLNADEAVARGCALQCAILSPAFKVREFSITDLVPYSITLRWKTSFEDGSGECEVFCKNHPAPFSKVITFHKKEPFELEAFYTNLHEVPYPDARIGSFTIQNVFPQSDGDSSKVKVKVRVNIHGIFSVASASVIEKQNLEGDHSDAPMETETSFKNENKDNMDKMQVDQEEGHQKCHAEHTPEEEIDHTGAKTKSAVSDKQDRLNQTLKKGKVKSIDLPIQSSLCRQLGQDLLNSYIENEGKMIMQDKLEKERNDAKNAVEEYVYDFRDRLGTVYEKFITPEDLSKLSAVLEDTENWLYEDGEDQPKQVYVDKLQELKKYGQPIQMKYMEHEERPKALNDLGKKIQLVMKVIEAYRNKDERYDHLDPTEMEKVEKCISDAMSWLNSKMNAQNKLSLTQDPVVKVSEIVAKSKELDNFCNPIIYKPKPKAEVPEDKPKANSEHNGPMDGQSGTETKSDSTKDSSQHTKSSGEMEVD
UniProt Q7LGA3: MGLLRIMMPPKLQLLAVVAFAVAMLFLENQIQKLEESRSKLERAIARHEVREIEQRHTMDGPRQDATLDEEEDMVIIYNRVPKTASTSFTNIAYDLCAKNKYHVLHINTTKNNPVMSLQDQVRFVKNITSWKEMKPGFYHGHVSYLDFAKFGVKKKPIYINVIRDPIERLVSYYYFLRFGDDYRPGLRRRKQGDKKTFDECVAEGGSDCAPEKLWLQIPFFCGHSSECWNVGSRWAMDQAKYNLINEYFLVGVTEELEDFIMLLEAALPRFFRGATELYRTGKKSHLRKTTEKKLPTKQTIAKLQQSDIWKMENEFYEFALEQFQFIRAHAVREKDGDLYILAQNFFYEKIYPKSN
UniProt Q6DN03, whole entry, looked up: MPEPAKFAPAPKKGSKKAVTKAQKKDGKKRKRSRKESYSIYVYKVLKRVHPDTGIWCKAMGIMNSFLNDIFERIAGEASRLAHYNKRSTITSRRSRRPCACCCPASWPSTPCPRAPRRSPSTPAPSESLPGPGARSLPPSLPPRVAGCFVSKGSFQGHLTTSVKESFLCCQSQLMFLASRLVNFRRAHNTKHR
UniProt P08238, whole entry, looked up: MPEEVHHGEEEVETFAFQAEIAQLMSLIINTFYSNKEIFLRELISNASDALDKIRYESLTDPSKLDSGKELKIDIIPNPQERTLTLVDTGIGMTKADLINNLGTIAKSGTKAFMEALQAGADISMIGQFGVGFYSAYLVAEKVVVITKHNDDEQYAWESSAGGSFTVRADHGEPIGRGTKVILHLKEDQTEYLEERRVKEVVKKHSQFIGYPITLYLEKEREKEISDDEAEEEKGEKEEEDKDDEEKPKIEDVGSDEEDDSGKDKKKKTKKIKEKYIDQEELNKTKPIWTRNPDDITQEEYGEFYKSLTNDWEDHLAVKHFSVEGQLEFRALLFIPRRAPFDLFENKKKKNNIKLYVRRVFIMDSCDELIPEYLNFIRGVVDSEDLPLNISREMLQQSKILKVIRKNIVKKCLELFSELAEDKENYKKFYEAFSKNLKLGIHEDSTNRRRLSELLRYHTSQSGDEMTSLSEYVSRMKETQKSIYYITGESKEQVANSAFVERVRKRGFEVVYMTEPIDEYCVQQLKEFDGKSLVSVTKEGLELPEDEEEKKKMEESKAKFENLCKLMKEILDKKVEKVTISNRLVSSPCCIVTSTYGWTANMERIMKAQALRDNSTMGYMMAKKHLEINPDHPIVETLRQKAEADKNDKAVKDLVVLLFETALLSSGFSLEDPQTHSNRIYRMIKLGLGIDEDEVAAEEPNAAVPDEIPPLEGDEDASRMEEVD
UniProt P51659: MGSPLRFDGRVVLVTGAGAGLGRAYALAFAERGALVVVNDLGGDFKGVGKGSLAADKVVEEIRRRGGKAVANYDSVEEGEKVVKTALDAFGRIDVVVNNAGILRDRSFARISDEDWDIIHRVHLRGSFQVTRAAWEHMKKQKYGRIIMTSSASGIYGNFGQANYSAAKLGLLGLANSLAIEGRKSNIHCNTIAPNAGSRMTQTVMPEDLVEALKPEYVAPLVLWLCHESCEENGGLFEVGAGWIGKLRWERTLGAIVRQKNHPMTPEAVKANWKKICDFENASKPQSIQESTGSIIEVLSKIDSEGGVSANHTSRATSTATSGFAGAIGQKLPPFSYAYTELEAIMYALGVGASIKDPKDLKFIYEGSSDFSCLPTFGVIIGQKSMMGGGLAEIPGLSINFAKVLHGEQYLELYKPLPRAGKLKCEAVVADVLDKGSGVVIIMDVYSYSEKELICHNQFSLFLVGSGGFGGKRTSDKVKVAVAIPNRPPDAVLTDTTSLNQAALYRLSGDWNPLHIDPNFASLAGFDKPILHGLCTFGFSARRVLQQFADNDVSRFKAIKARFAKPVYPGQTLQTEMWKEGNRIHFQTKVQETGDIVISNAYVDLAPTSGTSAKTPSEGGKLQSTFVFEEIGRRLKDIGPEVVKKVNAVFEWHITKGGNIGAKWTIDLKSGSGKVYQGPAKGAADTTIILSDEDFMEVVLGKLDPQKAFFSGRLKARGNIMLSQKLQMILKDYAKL
UniProt Q8NG08: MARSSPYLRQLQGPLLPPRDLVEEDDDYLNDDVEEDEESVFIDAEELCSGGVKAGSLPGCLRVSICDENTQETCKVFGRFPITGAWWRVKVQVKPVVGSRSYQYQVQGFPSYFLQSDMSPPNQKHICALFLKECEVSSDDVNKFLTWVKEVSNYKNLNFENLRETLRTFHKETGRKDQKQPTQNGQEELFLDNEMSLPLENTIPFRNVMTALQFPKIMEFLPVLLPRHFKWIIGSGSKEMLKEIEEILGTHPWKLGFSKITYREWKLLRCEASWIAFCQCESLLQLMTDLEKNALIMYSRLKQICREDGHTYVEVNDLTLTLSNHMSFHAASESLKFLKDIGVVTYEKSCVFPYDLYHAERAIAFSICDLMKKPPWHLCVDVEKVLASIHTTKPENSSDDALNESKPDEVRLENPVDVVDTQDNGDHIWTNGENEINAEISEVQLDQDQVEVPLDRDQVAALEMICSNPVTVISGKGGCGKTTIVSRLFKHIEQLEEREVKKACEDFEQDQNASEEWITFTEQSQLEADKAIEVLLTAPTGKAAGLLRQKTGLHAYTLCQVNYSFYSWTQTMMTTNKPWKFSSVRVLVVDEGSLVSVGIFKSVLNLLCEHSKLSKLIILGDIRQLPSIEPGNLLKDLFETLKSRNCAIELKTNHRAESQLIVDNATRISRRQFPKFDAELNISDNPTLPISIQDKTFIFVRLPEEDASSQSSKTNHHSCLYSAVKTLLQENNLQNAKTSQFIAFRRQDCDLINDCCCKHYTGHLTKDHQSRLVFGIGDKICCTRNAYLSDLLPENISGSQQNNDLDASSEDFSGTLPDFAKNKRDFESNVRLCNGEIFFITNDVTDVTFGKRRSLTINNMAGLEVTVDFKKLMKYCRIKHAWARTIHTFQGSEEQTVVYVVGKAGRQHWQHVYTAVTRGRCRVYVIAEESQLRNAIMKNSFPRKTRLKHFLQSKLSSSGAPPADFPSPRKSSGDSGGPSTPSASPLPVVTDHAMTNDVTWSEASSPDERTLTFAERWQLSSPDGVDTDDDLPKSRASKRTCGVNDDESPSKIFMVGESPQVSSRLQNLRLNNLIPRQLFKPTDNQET
UniProt P35914: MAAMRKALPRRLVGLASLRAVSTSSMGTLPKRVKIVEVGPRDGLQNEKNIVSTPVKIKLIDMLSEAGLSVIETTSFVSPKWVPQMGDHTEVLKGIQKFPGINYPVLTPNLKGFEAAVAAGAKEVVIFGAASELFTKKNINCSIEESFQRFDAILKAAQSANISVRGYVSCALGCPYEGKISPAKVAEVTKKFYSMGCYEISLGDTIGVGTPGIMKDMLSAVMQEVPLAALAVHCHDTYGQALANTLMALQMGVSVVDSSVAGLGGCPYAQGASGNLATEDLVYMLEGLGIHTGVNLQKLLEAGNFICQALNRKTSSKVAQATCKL
UniProt P0DMV8, whole entry, looked up: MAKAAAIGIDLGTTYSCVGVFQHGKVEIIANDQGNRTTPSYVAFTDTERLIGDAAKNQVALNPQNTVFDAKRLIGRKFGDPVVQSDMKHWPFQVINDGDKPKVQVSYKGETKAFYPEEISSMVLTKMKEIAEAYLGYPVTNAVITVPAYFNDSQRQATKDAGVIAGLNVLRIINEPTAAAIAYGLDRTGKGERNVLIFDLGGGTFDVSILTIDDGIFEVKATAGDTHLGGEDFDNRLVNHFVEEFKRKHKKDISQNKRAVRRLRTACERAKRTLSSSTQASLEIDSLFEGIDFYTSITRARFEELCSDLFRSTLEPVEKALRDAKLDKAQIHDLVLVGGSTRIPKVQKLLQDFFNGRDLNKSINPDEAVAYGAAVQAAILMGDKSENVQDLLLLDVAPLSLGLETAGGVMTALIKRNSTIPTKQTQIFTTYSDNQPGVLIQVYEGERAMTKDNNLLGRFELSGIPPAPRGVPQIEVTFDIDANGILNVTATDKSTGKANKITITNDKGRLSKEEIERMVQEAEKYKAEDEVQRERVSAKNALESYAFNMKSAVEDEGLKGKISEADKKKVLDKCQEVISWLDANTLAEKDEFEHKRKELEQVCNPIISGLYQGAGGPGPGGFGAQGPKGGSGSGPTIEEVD
UniProt P14625, whole entry, looked up: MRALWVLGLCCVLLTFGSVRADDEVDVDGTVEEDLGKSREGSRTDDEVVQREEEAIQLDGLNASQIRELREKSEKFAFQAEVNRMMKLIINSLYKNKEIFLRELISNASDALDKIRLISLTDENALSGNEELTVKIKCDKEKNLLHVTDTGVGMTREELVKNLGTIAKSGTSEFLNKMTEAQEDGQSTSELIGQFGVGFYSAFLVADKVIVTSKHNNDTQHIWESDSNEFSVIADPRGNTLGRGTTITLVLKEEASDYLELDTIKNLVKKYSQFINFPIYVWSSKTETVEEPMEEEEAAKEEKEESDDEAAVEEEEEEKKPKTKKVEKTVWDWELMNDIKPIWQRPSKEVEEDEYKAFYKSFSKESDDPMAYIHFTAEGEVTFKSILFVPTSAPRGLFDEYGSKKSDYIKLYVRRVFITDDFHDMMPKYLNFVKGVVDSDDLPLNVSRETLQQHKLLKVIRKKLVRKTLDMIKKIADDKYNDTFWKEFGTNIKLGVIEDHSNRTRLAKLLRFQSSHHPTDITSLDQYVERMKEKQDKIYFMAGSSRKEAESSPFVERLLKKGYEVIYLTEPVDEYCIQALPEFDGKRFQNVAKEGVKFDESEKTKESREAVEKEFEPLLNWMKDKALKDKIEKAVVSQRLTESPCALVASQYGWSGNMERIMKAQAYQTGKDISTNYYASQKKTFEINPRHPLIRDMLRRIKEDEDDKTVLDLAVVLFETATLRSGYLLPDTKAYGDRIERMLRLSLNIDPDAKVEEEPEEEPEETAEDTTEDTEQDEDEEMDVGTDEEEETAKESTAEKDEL

Legend:
Assay in all cases: log2 fold change, soluble protein after heating vs DMSO (PISA); higher = thermal stabilisation; K562 lysate, 10 uM; active = over 0.2 and 3.5 SD of the protein, either way, in both replicates (recomputed)
[1] = compound: C#Cc1cccc(Nc2ncnc3cc(OCCOC)c(OCCOC)cc23)c1 [erlotinib]
In short: (§1)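 Log-two fold change in thermal stability relative to solvent controls is reported from duplicates. For each sample, crude K562 extract from dounce-homogenised pellets in PBS pH 7.4 with 1 mM MgCl2, at 1 mg/mL protein, was treated with 10 μM compound for 30 min. Aliquots heated for 3 min across 48°C-58°C were pooled, brought to 0.5% NP-40 at 4°C and cleared at 21,000xg for 90 min. The supernatant was quantified by TMTpro 16plex LC-MS/MS with channel sums equalised.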

[2] = compound: C/C(=N\NC(=O)C1=CC(=CC=C1)S(=O)(=O)N2CCOCC2)/C3=C(C=CC(=C3)Cl)O
In short: as §1

[3] = compound: C1=CC(=CC=C1C2=NC3=C(N2)C=C(C=C3)C(=O)N)OC4=CC=C(C=C4)Cl
In short: as §1

[4] = compound: C1=CC2=C(C=CC(=C2)/C=C\3/C(=O)NC(=NCC4=CC=CS4)S3)N=C1
In short: as §1

[5] = compound: C1=CC2=NC=CN=C2C=C1/C=C/3\C(=O)NC(=O)S3
In short: as §1

[6] = compound: C1=CC=C(C=C1)C2=NC(=C(N2)C3=CC=NC=C3)C4=CC(=C(C=C4)Cl)O
In short: as §1

[7] = compound: C1=CC=C2C(=C1)C3=NNC4=CC=CC(=C43)C2=O
In short: as §1

[8] = compound: C1CCN(C1)C(=O)NC2=CC=CC(=C2)NC3=NC=C(C(=N3)NCCC4=CN=CN4)Br
In short: as §1

[9] = compound: C1CN(CCC1(CC2=CC=C(C=C2)Cl)N)C3=NC=NC4=C3C=CN4
In short: as §1

[10] = compound: C1COCCN1CCN2C3=CC=CC=C3N=C2NC(=O)C4=CC(=CC=C4)[N+](=O)[O-] [IRAK-1-4 Inhibitor I]
In short: as §1

[11] = compound: C=CC(=O)N1CCC[C@@H](n2nc(-c3ccc(Oc4ccccc4)cc3)c3c(N)ncnc32)C1 [ibrutinib]
In short: as §1

[12] = compound: CC(=O)c1cnc2ccc(-c3cc(Cl)c(O)c(Cl)c3)nc2c1N[C@H]1CC[C@H](CN(C)C)CC1
In short: as §1

[13] = compound: CC(C)(C)Cn1c(N)nc2ccc(-c3[nH]c(C(C)(C)C)nc3-c3ccc(F)cc3)nc21 [ralimetinib]
In short: as §1

[14] = compound: CC(C)(O)CC(=O)NCCn1ccc2ncnc(Nc3ccc(Oc4cccc(C(F)(F)F)c4)c(Cl)c3)c21
In short: as §1

[15] = compound: CC(C)C1=C2N=C(C=C(N2N=C1)NCC3=CC=CC=C3)NCCCCCCN
In short: as §1

[16] = compound: CC1=C(C(CC(=O)N1)C2=CC=C(C=C2)C(F)(F)F)C(=O)NC3=C(C=C4C(=C3)C=NN4)F
In short: as §1

[17] = compound: CC1=C(C2=C(C=C1)C(=O)C3=CC=CC=C3N2CCCN)C
In short: as §1

[18] = compound: CC1=C(C=C(C=C1)NC(=O)C2=CC(=CC=C2)C(C)(C)C#N)NC3=CC4=C(C=C3)N=CN(C4=O)C
In short: as §1

[19] = compound: CC1=C(C=C(C=C1)NC(=O)C2=CC(=CC=C2)N(C)C)NC(=O)C3=CC=C(C=C3)O
In short: as §1

[20] = compound: CC1=CC=C(C=C1)SC2=C3C=C(SC3=CN=C2)C(=O)N
In short: as §1

Measured: log2 fold change

HGS (UniProt O14964)
inactive: [1] 0.016 | [2] -0.004 | [3] 0.022 | [4] -0.034 | [5] -0.009 | [6] -0.006 | [7] -0.018 | [8] -0.019 | [9] 0.006 | [10] -0.001 | [11] -0.008 | [12] -0.009 | [13] -0.022 | [14] 0 | [15] 0.014 | [16] -0.012 | [17] 0.035 | [18] 0.021 | [19] 0.004 | [20] -0.005

HSPA4L (UniProt O95757)
inactive: [1] -0.004 | [2] 0.009 | [3] 0.017 | [4] 0.007 | [5] -0.027 | [6] 0.008 | [7] -0.023 | [8] -0.006 | [9] -0.003 | [10] -0.023 | [11] -0.003 | [12] 0.004 | [13] 0.005 | [14] -0.019 | [15] 0.024 | [16] -0.034 | [17] -0.013 | [18] -0.028 | [19] -0.005 | [20] 0.022

HSP90AB4P (UniProt Q58FF6)
inactive: [1] 0.062 | [2] 0.071 | [3] -0.113 | [4] -0.029 | [5] -0.258 | [6] 0.086 | [7] -0.091 | [8] -0.148 | [9] 0.04 | [10] 0.009 | [11] -0.002 | [12] 0.079 | [13] 0.084 | [14] -0.041 | [15] 0 | [16] -0.364 | [17] -0.096 | [18] 0.077 | [19] -0.006 | [20] -0.015

HM13 (UniProt Q8TCT9)
inactive: [1] 0.053 | [2] -0.062 | [3] -0.033 | [4] 0.035 | [5] -0.07 | [6] -0.005 | [7] -0.073 | [8] -0.012 | [9] 0.03 | [10] 0.061 | [11] 0.027 | [12] 0.038 | [13] -0.006 | [14] -0.045 | [15] 0 | [16] -0.01 | [17] 0.016 | [18] 0.038 | [19] 0.011 | [20] -0.012

HS2ST1 (UniProt Q7LGA3)
inactive: [1] -0.062 | [2] -0.036 | [3] -0.001 | [4] 0.007 | [5] 0.002 | [6] -0.035 | [7] 0.07 | [8] -0.02 | [9] -0.009 | [10] -0.004 | [11] 0.002 | [12] 0.003 | [13] 0.021 | [14] 0.027 | [15] -0.009 | [16] -0.023 | [17] 0.006 | [18] 0.005 | [19] -0.031 | [20] 0.012

HECTD1 (UniProt Q9ULT8)
inactive: [1] 0.034 | [2] 0.01 | [3] 0.009 | [4] -0.033 | [5] 0 | [6] 0.008 | [7] -0.008 | [8] -0.018 | [9] -0.001 | [10] -0.001 | [11] -0.034 | [12] -0.012 | [13] -0.027 | [14] 0 | [15] -0.004 | [16] -0.007 | [17] -0.037 | [18] 0.004 | [19] 0.019 | [20] -0.016

HMGN4 (UniProt O00479)
inactive: [1] 0.015 | [2] 0.238 | [3] 0.063 | [4] -0.056 | [5] 0.017 | [6] 0.048 | [7] 0.293 | [8] 0.201 | [9] -0.044 | [10] -0.046 | [11] -0.067 | [12] 0.051 | [13] -0.249 | [14] 0 | [15] -0.097 | [16] -0.011 | [17] 0.016 | [18] -0.014 | [19] -0.077 | [20] 0.022

HSP90AA1 isoform 2 (UniProt P07900)
inactive: [1] -0.006 | [2] 0.02 | [3] 0.006 | [4] 0.012 | [5] -0.014 | [6] 0.004 | [7] 0.077 | [8] 0.006 | [9] 0.008 | [10] -0.008 | [11] -0.01 | [12] 0.002 | [13] -0.018 | [14] -0.02 | [15] 0.008 | [16] -0.012 | [17] 0.001 | [18] -0.018 | [19] 0.004 | [20] 0.01

HIST2H2BC (UniProt Q6DN03)
inactive: [1] -0.036 | [2] 0.144 | [3] 0.001 | [4] 0.006 | [5] 0.061 | [6] 0.007 | [7] -0.012 | [8] 0.043 | [9] 0.04 | [10] -0.028 | [11] 0.003 | [12] -0.052 | [13] -0.013 | [14] 0.003 | [15] -0.055 | [16] 0.066 | [17] 0.029 | [18] -0.001 | [19] 0.032 | [20] 0.031

HSP90AB1 (UniProt P08238)
inactive: [1] -0.002 | [2] -0.014 | [3] 0.014 | [4] 0.004 | [5] -0.021 | [6] 0.005 | [7] 0.065 | [8] 0.003 | [9] -0.003 | [10] -0.015 | [11] 0.001 | [12] 0.003 | [13] -0.011 | [14] 0.006 | [15] 0.006 | [16] 0 | [17] 0.014 | [18] -0.024 | [19] 0.019 | [20] 0.012

2 entries drawn at random from those above:
HSP90AB1 (UniProt P08238)
inactive: [1] -0.002 | [2] -0.014 | [3] 0.014 | [4] 0.004 | [5] -0.021 | [6] 0.005 | [7] 0.065 | [8] 0.003 | [9] -0.003 | [10] -0.015 | [11] 0.001 | [12] 0.003 | [13] -0.011 | [14] 0.006 | [15] 0.006 | [16] 0 | [17] 0.014 | [18] -0.024 | [19] 0.019 | [20] 0.012

HECTD1 (UniProt Q9ULT8)
inactive: [1] 0.034 | [2] 0.01 | [3] 0.009 | [4] -0.033 | [5] 0 | [6] 0.008 | [7] -0.008 | [8] -0.018 | [9] -0.001 | [10] -0.001 | [11] -0.034 | [12] -0.012 | [13] -0.027 | [14] 0 | [15] -0.004 | [16] -0.007 | [17] -0.037 | [18] 0.004 | [19] 0.019 | [20] -0.016

Next results follow.

HSD17B4 (UniProt P51659)
inactive: [1] -0.003 | [2] -0.037 | [3] 0.016 | [4] -0.008 | [5] -0.015 | [6] -0.024 | [7] -0.008 | [8] -0.016 | [9] 0.032 | [10] 0.016 | [11] 0.052 | [12] 0.006 | [13] 0.017 | [14] 0.015 | [15] 0.006 | [16] -0.012 | [17] -0.01 | [18] 0.032 | [19] -0.02 | [20] 0.011

HELB (UniProt Q8NG08)
inactive: [1] 0.043 | [2] -0.076 | [3] 0.029 | [4] -0.01 | [5] -0.009 | [6] 0.069 | [7] 0.035 | [8] 0.107 | [9] 0.03 | [10] -0.034 | [11] 0.025 | [12] -0.05 | [13] 0.045 | [14] -0.051 | [15] -0.018 | [16] -0.009 | [17] -0.054 | [18] 0.032 | [19] -0.013 | [20] -0.065

HMGCL (UniProt P35914)
inactive: [1] 0.002 | [2] -0.089 | [3] 0.032 | [4] -0.016 | [5] -0.047 | [6] -0.005 | [7] -0.035 | [8] 0.005 | [9] 0.008 | [10] 0.024 | [11] 0.037 | [12] 0.008 | [13] 0.026 | [14] -0.016 | [15] -0.018 | [16] 0.001 | [17] -0.019 | [18] -0.009 | [19] 0.022 | [20] -0.014

HSPA1A (UniProt P0DMV8)
inactive: [1] -0.022 | [2] 0.022 | [3] 0.03 | [4] -0.004 | [5] -0.03 | [6] 0.002 | [7] 0.016 | [8] -0.005 | [9] -0.038 | [10] -0.003 | [11] -0.008 | [12] -0.015 | [13] -0.026 | [14] 0.008 | [15] 0.022 | [16] 0 | [17] 0.001 | [18] -0.009 | [19] 0.022 | [20] -0.008

HNRNPH1 (UniProt P31943)
inactive: [1] 0.005 | [2] -0.055 | [3] 0.014 | [4] 0.035 | [5] 0.016 | [6] 0.044 | [7] -0.003 | [8] -0.003 | [9] -0.008 | [10] 0.019 | [11] 0 | [12] -0.026 | [13] -0.002 | [14] -0.011 | [15] 0.019 | [16] 0.02 | [17] 0.018 | [18] 0.028 | [19] -0.001 | [20] -0.002

HSP90B1 (UniProt P14625)
inactive: [1] -0.016 | [2] 0.004 | [3] 0.02 | [4] 0.002 | [5] -0.008 | [6] 0.008 | [7] 0.023 | [8] 0.01 | [9] -0.011 | [10] 0.004 | [11] -0.002 | [12] -0.004 | [13] -0.019 | [14] 0.003 | [15] 0.006 | [16] -0.006 | [17] -0.007 | [18] -0.021 | [19] -0.002 | [20] -0.004
